Earlier results, collected in patent publication US20170095496A1, “GALACTOSIDE INHIBITORS FOR NEW USES” (GALECTO BIOTECH AB, priority 2014, published 2017).
Some of these results come from one statement about several compounds together.

Biological target: T1, galectins
T1 construct: other: relative to lactose; dissociation constant (KD)
Details: binding to galectins; read-out: dissociation constant (KD); cited from earlier work

In the case of `OC[C@H]1O[C@@H](O[C@H]2[C@H](O)[C@@H](O)C(O)O[C@@H]2CO)[C@H](O)[C@@H](O)[C@H]1O` (stereo partly shown) [lactose], the Kd is given as 500 to 1000 µM.
